These results are taken from PubChem BioAssay AID662 (National Center for Advancing Translational Sciences (NCATS), 2007).

Molecules are shown by their SMILES. This is one part of the list. Shown are side measurements of this screen, not its main read-out; they come without a call. Most of these compounds were active or inconclusive in the main read-out, so they are no random draw. The note in brackets gives the kind of curve behind each potency; many fits are weak.

A short description of this experiment: Cell signaling CRE-BLA (Fsk stim). To be noted: CHO CRE-bla reporter (cAMP response element driving beta-lactamase), forskolin EC10, beta-lactamase ratio; measured here: 460 nm blue channel. In outline:
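Forskolin analogue NKH 477 at EC10 stimulated CRE-driven beta-lactamase in CHO cells alongside compound dilution series. Beta-lactamase was measured with CCF4, excitation 405 nm, emission ratio 460/530 nm.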
`CN(CCO)c1ncnc2nc[nH]c12`: the AC50 is 10 µM [rising, partial curve]. For the compound `O=C(C1=C(O)C(=O)N(Cc2ccccc2)C1c1cccnc1)c1ccco1` (centres undefined), the AC50 was 2.51 µM [falling, partial curve].

`Cc1oc(-c2cccc(Cl)c2)nc1CN1CCC(C(=O)NCc2cccnc2)CC1`: the AC50 was 10 µM [falling, partial curve].

For the compound `Fc1ccc(N2CCN(C(c3cccs3)c3nnnn3CCc3ccccc3)CC2)cc1` (centres undefined), the AC50 was 10 µM [falling, single point]. With `O=C(NC1=NCCS1)c1ccc(OCC2CCCO2)cc1` (centres undefined), the AC50 was 0.00398 µM [falling, full curve, poor fit]. For the compound `COc1ccc(-c2nnc(Nc3nc4c(OC)cccc4s3)o2)cc1`, the AC50 is 12.6 µM [rising, partial curve].

Regarding `CN(c1ccccc1)c1nc(-n2ccnc2)nc(-n2ccnc2)n1`, the AC50 was 10 µM [rising, partial curve]. Take `CCC(=O)c1cc(-c2nc3ccccc3n2C)n(C)c1`: the AC50 is 10 µM [rising, partial curve].

Turning to `CN1CCN(c2ncc3nc(-c4ccccc4)c(=O)n(CCC#N)c3n2)CC1`, the AC50 is 3.98 µM [rising, full curve].

As for `COc1ccc(-c2c3c(nc4sc(C(=O)Nc5cc(C)on5)c(N)c24)CCC3)cc1`, the AC50 is 5.01 µM [rising, partial curve]. For `CC1Cc2ccccc2N1C(=O)Cn1c(=O)oc2cc(S(=O)(=O)N3CCCCC3)ccc21` (centres undefined), the AC50 is 10 µM [falling, single point]. Next, `CSc1nc(N)nc(SC2C=CCCC2)c1C#N` (centres undefined): 10 µM [rising, partial curve]; `COc1ccc2cc(C(c3nnnn3C3CCCC3)N3CCc4ccccc4C3)c(=O)[nH]c2c1` (centres undefined): 12.6 µM [rising, single point]; `COc1cccc(-c2cc(C(=O)N3CCN(c4ncccn4)CC3)c3ccccc3n2)c1`: 25.1 µM [falling, single point]. On to `Cc1cc(C)n2nc(SCc3cc(=O)n4ccccc4n3)nc2n1`, for which the AC50 is 3.16 µM [rising, full curve]. Next, `COc1cc(-c2cc(=O)c3ccccc3o2)ccc1O`: 1.58 µM [rising, full curve].

`Clc1ccc(OCc2nc(-c3ccccn3)n[nH]2)cc1`: the AC50 was 0.0501 µM [falling, full curve, poor fit]. Under `O=C(Oc1ccc(-c2nc(-c3ccccn3)no2)cc1)c1ccccc1` stands 0.00398 µM [falling, full curve, poor fit].

`CCOc1cccc(C(=O)Nc2cccc(-c3nc4ncccc4o3)c2C)c1`: the AC50 was 1.58 µM [rising, single point]. As for `Cc1cccc2cc(C#N)c(SCCN3CCCCC3)nc12`, the AC50 is 12.6 µM [rising, single point]. As to `CC(C)C1Cc2[nH]c(=O)c(C(=O)O)cc2CO1` (centres undefined), the AC50 was 15.8 µM [falling, partial curve, poor fit].

As for `CC1CCCCC1NS(=O)(=O)c1ccc(S(=O)(=O)N2CCN(CCC#N)CC2)cc1` (centres undefined), the AC50 is 12.6 µM [rising, partial curve]. For `COc1ccc(C2N=C(Nc3ccc(C)cc3)Nc3nc(C)cc(=O)n32)cc1` (centres undefined), the AC50 is 31.6 µM [falling, single point]. Next, `CCOc1ccc(-n2c(C)nc3c(cnn3-c3ccc(Cl)cc3)c2=O)cc1`: 0.0631 µM [rising, full curve]; `CN(C)c1ncc2nc(CCc3ccccc3)c(=O)n(-c3ccccc3)c2n1`: 10 µM [rising, partial curve]; `COc1ccc(Nc2nc(CC(C)=O)ns2)cc1OC`: 10 µM [rising, partial curve].

For `CCCCCn1c(SCC#N)nc2cc(C(=O)NC3CCCCC3)ccc2c1=O`, the AC50 was 0.251 µM [falling, full curve]. Next, `COc1cccc(Cn2c(=O)c(C)nc3cnc(Oc4cccc(Cl)c4)nc32)c1`: 7.94 µM [rising, partial curve]; `CC(=O)C1=C(O)C(=O)N(CCc2c[nH]c3ccccc23)C1c1cccc(O)c1` (centres undefined): 10 µM [falling, partial curve]; `COc1cc(-c2nnc(-c3cccs3)o2)cc(OC)c1OC`: 2.51 µM [rising, full curve, poor fit]. `COc1ccc(CCn2c(N)c(S(=O)(=O)c3cccs3)c3nc4ccccc4nc32)cc1OC`: the AC50 is 5.01 µM [falling, single point]. As for `COc1ccc(-n2c(=O)c(C)nc3cnc(N4CCNCC4)nc32)cc1`, the AC50 is 12.6 µM [rising, partial curve].

Consider `COc1ccc(N2CCN(C(=O)CC(NC(N)=O)c3cccc(Oc4ccccc4)c3)CC2)cc1` (centres undefined), for which the AC50 is 3.98 µM [rising, partial curve]. Regarding `COc1ccc(Cn2c(C)nc3c(c2=O)c2nc4ccccc4nc2n3Cc2ccco2)cc1`, the AC50 is 12.6 µM [rising, partial curve]. For the compound `CCOC(=O)CSc1nc2c(sc(=S)n2Cc2ccco2)c(=O)n1-c1ccccc1`, the AC50 was 10 µM [rising, partial curve]. For the compound `CCOC(=O)c1[nH]cnc1C(=O)NC1CCCCC1`, the AC50 is 3.98 µM [rising, partial curve]. Under `CCOC(=O)c1oc2cccc(O)c2c1CN1CCOCC1` stands 25.1 µM [rising, single point]; under `CCc1c(-c2ccccc2)nc2nc(C)c(C)nn12`, 12.6 µM [rising, partial curve]; under `O=C(Nc1nnc(COc2ccccc2)s1)c1ccco1`, 20 µM [rising, single point]. As for `O=C(Nn1c(-c2ccccc2)nc2ccccc2c1=O)c1ccco1`, the AC50 is 3.98 µM [falling, full curve]. Next, `COc1ccccc1N1CCN(c2nc3ccccc3nc2C(C#N)C(=O)OC(C)C)CC1` (centres undefined): 2 µM [rising, partial curve]. Take `COc1ccc(Br)cc1C1CC(=O)N2CN(Cc3ccccc3)CSC2=C1C#N` (centres undefined): the AC50 was 3.98 µM [rising, single point].

Take `O=C(NC1CCCC1)C1CCN(S(=O)(=O)c2cccc3cccnc23)CC1`: the AC50 was 20 µM [falling, partial curve, poor fit]. Under `CCN(CC)C(=O)c1cc2c(=O)n3cccc(C)c3nc2n1C` stands 12.6 µM [rising, partial curve, poor fit]; under `Cc1sc2ncnc(Sc3nnnn3-c3ccccc3)c2c1C`, 20 µM [falling, partial curve]. Under `Cc1csc(NC(=O)c2cccc(S(=O)(=O)N3CCCCC3)c2)n1` stands 12.6 µM [rising, single point]. Under `CCCc1[nH]nc2c1C(c1cn[nH]c1-c1ccc(F)cc1)C(C#N)=C(N)O2` (centres undefined) stands 7.94 µM [falling, partial curve, poor fit]; under `C1=Nc2c(NCc3ccccc3)ncnc2Oc2ccccc21`, 20 µM [rising, single point].

Regarding `CC(C)CN(CC(C)C)c1nc(N)c(C#N)c(CC#N)c1C#N`, the AC50 is 20 µM [rising, single point].

As to `Cc1ccccc1OCCn1nc(C(=O)O)c2ccccc2c1=O`, the AC50 was 12.6 µM [rising, single point]. As to `C(=N\n1cnnc1)/c1cccc2ccccc12`, the AC50 was 12.6 µM [rising, single point].

`Cc1cccc(N=c2oc3cc(O)ccc3cc2C(N)=O)c1`: the AC50 is 10 µM [rising, partial curve]. `CCCc1nc(SCC(=O)N2CCCc3ccccc32)c2c(=O)n(C)c(=O)n(C)c2n1`: the AC50 was 15.8 µM [falling, single point]. As for `Cc1ccc(OCc2nn3c(-c4n[nH]c5c4CCC5)nnc3s2)cc1`, the AC50 was 25.1 µM [rising, single point]. Next, `N#Cc1c2c(c(NCc3ccco3)n3c1nc1ccccc13)CCC2`: 6.31 µM [rising, partial curve]; `COc1cc(-c2noc(CCCC(=O)NCc3ccco3)n2)cc(OC)c1OC`: 20 µM [rising, single point]. Under `O=C1c2ccccc2C(=O)N1c1cccc(-c2nc3ccccc3o2)c1` stands 15.8 µM [rising, partial curve]; under `CCOc1ccc(C2NC(=O)c3ccccc3O2)cc1` (centres undefined), 3.98 µM [rising, partial curve]; under `O=C(Cn1nnc(-c2ccccc2)n1)OC1CCOC1=O` (centres undefined), 5.01 µM [falling, single point]. Under `CCn1nnc(NC(=O)c2cccnc2)n1` stands 0.0398 µM [falling, full curve]; under `CC(=O)c1c(C)cc(C)c(CSc2nnc(-c3ccco3)o2)c1C`, 7.94 µM [rising, partial curve]. `CCc1nnc(NC(=O)c2ccc(OC)cc2OC)s1`: the half-maximal activity concentration (AC50) was 12.6 µM [rising, partial curve]. Next, `CCOC(=O)Cc1nnc(NC(=O)C(CC)Sc2nnc3c4ccccc4n(C)c3n2)s1` (centres undefined): 5.01 µM [rising, partial curve]; `CCNc1ncc2nc(-c3cccs3)c(=O)n(-c3ccc(OC)cc3)c2n1`: 2.51 µM [rising, full curve]. Next, `Cc1[nH]c2ccccc2c1C(=O)CN1CCCC1`: 20 µM [falling, single point]; `CCOCCCNC(=O)C(c1ccc(Cl)cc1)N1CCC2(CC1)OCCO2` (centres undefined): 20 µM [falling, partial curve]. Under `Cc1nc2c(ccc3nc(NC(=O)c4ccc5c(c4)OCCO5)sc32)s1` stands 25.1 µM [falling, single point]; under `O=C(NCc1ccc2c(c1)OCO2)c1ccc(-c2ccc(Cl)cc2)o1`, 2.51 µM [rising, partial curve, poor fit]; under `COCCSc1ccccc1C(=O)Nc1nnc(COC)s1`, 0.0501 µM [falling, full curve].

For orientation: AC50 means the concentration at which the activity in the assay is half-maximal.
